Source: patent publication US9333219B2, “Method to treat or prevent herpesvirus infections” (ALBERT EINSTEIN COLLEGE OF MEDICINE OF YESHIVA UNIVERSITY, priority 2012, dated 2016)
For at least one compound, name, drawing or mass did not settle the structure.

System: HSV-induced Ca2+ response
Assay: Calcium kinetic measurements (fura-2 fluorometry) in CaSki cells
Assay type: cell-based, human
Details: CaSki cells pretreated with drug (wortmannin 5 nM), HSV-2(G) moi 2 pfu/cell, first hour
Procedure: FIG. 4A-4E: Akt is required for HSV-induced calcium release and treatment with the ionophore, ionomycin, partially overcomes the block to infection in Akt-silenced cells. CaSki cells were loaded with Calcium Green 72 h post-transfection with the indicated siRNA and synchronously mock-infected or infected with purified HSV-2(G). Live images were acquired 3 min post-temperature shift to 37° C. For these xyz images, the plasma membranes are red (medium gray in grayscale), nuclei are blue (darkest gray in grayscale), and Ca^2+ is green (lighter gray in grayscale); colocalization of Ca^2+ and plasma membrane is yellow (lightest gray in grayscale). Representative images from 4 independent experiments are shown; the grid bars indicate a distance of 9.2 micrometers (a). Transfected cells were loaded with fura-2, infected with purified HSV-2 (moi 2 pfu/cell) or mock-infected and the kinetics of Ca^2+ response monitored. The mean intracellular [Ca^2+] for 5×10^4 cells over the first 30 minutes was quantified; control cells were also pretreated with wortmannin or miltefosine and then infected with HSV-2 (b). The cumulative [Ca^2+] released over 1 hour was calculated from 4 wells, each containing 5×10^4 cells (mock-infected, HSV-2 infected in the absence or presence of wortmannin or miltefosine, or following treatment of uninfected cells with 1 μM of ionomycin) (c). […]

COC[C@H]1OC(=O)c2coc3c2[C@@]1(C)C1=C(C3=O)[C@@H]2CCC(=O)[C@@]2(C)C[C@H]1OC(C)=O [wortmannin]
HSV-induced Ca2+ response: blocked the HSV-induced Ca^2+ response
